According to PMC12750958:
Results are given in words; binding and its absence hold for the method and conditions named. Binding seen in cells or lysates may run through a third protein. Some entries that bind do so weakly or less than the wild type.

Biological target: p53 (human (endogenous in hAMSCs)) (UniProt P04637)
Experiment: co-IP; RIPA lysate, sonicated, of P10 hAMSCs cocultured with or without PBLs (1:100); antibody (ab26, 1:100) on magnetic beads, lysate incubated overnight at 4 °C, washed four times with PBST, eluted by boiling in loading buffer, SDS-PAGE and blot

- binding: binds
Substance: small ubiquitin-like modifier-1 (SUMO-1) (from UniProt P63165 1-97)
